From US20200325236A1 come the findings set out here.

No constants are given. Whether binding was seen depends on the method and setting. Binding calls can cover weak binding; strength is not graded here.

Experiment [1] addresses cynomolgus monkey 4-1BB protein (cynomolgus monkey). Put plainly: ELISA, cynomolgus monkey 4-1BB coated at 1 ug/mL. A general note: An ELISA detects its analyte on a solid surface through an enzyme-linked reagent.
The target is the same in experiment [2]. Nature of the experiment: ELISA, plate coated with cynomolgus monkey 4-1BB according to paragraph 93 (sheet legend: 'Rhesus 4-1BB'), 1 ug/mL, HRP goat anti-human IgG, OD 450 nm.

B1: ab1 chimeric antibody (anti-human 4-1BB antibody ab1) (antibody, human IgG1, V domains shown)
VH: QVQLQQSGAELVRPGTSVKISCKASGYAFTNYWLGWVKQRPGHGLEWIGDIYPGNGNSYYNEKFKGRATLTADKSSSTVYMQLSSLTSEDSVVYFCTRSSSYYRDVMDYWGQGTSVTVSS
VL: DIQMTQSPASLSASVGETVTITCRASENIYSYLVWYQQKQGKSPQLLVYNAKTLAEGVSSRFSGSGSGTQFSLKINSLQPEDFGSYYCQHHYGTPLTFGAGTKLELKR
On to B1, for which the binding result in experiment [1] and in experiment [2] was “binds” each time.
